The text below walks through data of the Kinase Knowledgebase extract (Sharma et al. 2016).

The target in this test is CDK2 (UniProt P24941). As to the kind of experiment: Enzyme Assay.

As usually defined, the IC50 is the point on the concentration scale where inhibition reaches its midpoint. In the case of `CC(C)n1cnc2c(NCc3cccc(I)c3)nc(N3CCC[C@@H]3CO)nc21`, the half-inhibitory concentration (IC50) was 650 nM.
